According to the supplement of paper PMC10849652:
Some of the results follow.

By UniProt entry, the sequences of proteins in these tests, tags left out. Where a name states a change or a piece, a line headed by the entry shows the natural chain unless it says otherwise.
UniProt Q8WUH1: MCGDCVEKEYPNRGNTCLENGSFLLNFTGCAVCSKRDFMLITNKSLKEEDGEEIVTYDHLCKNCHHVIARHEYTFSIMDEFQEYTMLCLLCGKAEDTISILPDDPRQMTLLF
UniProt P30085: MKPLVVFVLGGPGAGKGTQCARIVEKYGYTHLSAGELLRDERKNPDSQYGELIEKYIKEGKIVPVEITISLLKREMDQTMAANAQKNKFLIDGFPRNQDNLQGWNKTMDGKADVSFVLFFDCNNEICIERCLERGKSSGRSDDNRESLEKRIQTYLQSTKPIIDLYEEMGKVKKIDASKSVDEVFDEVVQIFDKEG
UniProt Q9Y2R0: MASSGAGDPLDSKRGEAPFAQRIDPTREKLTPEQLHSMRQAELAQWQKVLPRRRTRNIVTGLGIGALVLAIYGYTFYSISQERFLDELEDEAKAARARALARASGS
UniProt Q9H078: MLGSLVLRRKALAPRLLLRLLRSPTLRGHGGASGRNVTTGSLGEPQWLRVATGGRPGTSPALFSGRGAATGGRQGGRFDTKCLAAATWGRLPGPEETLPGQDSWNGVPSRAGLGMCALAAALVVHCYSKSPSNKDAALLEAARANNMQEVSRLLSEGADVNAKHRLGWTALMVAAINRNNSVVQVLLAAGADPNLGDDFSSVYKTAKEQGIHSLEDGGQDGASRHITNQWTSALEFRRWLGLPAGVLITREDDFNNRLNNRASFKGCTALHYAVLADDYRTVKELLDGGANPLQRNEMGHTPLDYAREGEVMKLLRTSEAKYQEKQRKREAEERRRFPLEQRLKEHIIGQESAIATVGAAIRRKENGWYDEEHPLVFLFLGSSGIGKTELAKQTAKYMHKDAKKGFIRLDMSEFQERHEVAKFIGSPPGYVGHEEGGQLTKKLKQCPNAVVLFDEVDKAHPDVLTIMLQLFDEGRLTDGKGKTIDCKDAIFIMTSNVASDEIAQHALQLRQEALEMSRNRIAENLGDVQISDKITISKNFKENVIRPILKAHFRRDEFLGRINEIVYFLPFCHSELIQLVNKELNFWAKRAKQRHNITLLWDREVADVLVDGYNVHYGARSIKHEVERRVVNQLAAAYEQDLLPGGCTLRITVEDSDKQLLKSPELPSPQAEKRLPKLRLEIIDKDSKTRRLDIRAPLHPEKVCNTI
UniProt Q7Z7K0: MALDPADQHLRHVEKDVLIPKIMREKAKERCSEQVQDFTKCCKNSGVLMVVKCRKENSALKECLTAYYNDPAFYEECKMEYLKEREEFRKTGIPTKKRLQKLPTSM
UniProt Q9GZY4: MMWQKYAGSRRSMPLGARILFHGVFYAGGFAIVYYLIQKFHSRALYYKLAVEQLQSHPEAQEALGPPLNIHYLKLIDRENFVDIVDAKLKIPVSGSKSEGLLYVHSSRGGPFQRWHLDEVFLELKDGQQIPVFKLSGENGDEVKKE
UniProt Q96BR5: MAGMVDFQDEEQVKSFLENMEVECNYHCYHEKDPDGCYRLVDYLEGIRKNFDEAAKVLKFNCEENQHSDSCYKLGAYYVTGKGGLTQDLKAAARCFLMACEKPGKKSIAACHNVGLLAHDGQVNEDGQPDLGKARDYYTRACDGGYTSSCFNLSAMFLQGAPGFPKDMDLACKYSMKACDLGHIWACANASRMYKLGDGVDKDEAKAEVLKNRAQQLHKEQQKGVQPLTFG
UniProt P39060, whole entry, looked up: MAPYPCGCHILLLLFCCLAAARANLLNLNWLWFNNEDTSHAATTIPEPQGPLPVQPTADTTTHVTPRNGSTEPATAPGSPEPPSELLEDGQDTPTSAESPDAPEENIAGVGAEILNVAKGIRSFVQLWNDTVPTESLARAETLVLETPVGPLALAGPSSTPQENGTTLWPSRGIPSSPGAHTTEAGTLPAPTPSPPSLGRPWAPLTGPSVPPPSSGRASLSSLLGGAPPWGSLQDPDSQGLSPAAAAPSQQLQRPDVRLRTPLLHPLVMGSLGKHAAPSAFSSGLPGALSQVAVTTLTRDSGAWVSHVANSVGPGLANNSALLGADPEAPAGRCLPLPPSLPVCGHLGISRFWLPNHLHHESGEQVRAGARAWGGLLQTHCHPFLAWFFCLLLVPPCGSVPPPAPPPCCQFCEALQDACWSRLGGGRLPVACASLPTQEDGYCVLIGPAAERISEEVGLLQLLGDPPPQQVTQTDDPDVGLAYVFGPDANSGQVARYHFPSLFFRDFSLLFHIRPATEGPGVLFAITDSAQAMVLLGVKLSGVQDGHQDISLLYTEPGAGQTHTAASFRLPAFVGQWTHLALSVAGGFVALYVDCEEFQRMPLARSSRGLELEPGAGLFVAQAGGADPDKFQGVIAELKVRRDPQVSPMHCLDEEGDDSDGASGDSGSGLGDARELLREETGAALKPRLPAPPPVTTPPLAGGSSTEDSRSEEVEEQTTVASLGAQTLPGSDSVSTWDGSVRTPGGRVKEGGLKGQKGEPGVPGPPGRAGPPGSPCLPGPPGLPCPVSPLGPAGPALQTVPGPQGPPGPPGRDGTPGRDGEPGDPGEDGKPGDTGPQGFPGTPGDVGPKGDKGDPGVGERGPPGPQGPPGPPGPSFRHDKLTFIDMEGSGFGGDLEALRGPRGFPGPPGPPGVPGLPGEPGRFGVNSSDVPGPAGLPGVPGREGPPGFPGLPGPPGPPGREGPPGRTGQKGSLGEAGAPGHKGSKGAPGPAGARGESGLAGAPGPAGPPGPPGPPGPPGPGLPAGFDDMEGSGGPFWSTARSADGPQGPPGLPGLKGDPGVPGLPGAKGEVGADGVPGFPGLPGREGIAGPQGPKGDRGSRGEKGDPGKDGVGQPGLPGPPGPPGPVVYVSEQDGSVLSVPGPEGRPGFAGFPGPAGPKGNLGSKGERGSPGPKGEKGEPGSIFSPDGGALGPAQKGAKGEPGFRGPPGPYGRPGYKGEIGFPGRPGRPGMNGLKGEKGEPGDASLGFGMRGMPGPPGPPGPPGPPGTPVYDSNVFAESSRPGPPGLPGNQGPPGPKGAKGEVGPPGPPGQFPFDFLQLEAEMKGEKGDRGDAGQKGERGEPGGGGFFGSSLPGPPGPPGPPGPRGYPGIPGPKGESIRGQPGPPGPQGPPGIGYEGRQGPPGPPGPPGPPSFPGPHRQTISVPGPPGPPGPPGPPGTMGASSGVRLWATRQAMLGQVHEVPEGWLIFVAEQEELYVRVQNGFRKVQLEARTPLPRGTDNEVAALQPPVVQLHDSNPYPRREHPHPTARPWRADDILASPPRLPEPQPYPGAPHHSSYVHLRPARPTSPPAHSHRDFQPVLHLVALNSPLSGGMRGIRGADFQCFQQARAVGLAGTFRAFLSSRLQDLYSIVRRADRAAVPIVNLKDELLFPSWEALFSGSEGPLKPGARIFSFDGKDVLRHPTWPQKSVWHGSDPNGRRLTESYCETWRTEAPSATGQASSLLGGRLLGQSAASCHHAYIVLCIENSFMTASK
UniProt O15247: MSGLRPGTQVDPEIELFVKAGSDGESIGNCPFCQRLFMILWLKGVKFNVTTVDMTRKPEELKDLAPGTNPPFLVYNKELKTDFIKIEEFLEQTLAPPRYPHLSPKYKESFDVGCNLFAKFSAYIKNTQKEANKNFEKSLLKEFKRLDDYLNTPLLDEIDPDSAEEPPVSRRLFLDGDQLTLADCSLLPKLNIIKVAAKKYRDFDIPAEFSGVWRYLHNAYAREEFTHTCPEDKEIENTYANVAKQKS
UniProt O14967: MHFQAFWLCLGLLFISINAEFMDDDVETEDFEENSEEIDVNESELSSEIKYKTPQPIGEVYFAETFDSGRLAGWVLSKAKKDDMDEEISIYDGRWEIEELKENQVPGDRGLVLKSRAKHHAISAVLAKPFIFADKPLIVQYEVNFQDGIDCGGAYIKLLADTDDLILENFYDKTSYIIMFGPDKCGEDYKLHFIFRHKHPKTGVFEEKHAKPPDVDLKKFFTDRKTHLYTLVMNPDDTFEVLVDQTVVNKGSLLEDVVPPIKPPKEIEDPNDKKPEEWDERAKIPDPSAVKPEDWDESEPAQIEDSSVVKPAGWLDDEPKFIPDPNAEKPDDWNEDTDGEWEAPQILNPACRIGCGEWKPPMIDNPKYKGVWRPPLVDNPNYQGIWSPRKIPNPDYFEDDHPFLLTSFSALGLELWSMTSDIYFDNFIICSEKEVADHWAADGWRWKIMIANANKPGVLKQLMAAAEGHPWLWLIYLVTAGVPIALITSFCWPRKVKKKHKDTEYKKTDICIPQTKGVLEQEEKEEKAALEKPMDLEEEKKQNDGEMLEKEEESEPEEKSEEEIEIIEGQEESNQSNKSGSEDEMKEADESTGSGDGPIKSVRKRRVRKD
UniProt O75175, whole entry, looked up: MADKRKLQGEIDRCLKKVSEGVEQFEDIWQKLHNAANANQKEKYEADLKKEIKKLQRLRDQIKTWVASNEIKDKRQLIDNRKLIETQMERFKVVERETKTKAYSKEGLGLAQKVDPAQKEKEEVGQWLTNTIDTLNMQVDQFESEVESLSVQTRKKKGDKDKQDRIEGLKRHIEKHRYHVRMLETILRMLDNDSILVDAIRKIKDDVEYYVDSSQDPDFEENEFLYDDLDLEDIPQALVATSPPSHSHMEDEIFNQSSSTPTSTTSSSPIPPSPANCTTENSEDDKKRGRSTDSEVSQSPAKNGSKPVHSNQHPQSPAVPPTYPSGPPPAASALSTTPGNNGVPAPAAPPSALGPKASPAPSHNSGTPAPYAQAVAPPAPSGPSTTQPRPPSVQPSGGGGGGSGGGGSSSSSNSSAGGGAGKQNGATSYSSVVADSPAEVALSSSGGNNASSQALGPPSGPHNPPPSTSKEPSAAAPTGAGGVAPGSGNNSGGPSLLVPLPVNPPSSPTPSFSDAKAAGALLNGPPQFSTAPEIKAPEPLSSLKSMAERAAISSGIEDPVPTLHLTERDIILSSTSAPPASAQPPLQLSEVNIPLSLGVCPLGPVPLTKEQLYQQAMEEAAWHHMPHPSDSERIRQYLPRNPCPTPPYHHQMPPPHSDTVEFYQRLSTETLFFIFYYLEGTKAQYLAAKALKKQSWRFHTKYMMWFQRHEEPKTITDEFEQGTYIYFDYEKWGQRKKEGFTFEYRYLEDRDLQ
UniProt Q6FI81: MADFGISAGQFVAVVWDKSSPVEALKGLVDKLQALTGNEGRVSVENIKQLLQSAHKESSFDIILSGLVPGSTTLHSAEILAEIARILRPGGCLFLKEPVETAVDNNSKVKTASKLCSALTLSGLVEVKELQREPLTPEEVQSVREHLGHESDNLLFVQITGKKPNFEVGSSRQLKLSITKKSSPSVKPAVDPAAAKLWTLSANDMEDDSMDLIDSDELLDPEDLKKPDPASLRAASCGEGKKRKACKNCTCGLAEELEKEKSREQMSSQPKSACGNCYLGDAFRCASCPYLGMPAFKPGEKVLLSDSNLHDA
UniProt Q8N3C7: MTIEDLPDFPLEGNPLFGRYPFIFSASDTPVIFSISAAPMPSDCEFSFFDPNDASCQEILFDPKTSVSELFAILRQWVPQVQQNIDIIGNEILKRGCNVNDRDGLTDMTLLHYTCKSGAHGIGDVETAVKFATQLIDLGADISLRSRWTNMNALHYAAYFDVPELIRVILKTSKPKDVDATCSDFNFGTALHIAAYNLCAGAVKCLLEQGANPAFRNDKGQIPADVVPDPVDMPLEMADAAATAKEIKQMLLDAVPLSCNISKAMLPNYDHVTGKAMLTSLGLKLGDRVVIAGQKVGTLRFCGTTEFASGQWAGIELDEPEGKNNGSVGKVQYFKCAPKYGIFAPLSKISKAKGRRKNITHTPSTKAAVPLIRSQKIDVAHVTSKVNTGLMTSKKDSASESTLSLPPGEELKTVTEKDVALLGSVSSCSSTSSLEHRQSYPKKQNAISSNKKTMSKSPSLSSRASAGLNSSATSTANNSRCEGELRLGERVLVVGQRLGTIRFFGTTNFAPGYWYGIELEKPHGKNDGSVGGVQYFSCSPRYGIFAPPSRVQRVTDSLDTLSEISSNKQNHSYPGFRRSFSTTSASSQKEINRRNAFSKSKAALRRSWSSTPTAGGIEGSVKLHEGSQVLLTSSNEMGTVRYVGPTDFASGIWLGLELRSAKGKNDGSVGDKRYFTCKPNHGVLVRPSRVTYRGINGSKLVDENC
UniProt Q96S66: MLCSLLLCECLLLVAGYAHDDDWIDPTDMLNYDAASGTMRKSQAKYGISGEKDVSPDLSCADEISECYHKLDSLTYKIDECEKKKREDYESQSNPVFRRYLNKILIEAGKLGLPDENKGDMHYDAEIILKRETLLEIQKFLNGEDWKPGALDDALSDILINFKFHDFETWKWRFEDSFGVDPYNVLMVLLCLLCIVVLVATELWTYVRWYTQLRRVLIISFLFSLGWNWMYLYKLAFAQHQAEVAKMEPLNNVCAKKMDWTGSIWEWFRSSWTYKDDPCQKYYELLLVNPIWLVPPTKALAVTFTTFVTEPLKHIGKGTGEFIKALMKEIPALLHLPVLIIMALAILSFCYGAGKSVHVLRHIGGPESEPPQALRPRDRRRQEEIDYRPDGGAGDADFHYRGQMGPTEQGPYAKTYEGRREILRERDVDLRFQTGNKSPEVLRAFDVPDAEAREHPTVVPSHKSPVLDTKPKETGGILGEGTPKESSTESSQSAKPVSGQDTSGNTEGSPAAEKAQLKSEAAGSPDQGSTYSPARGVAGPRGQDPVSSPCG

Compound: NC(=O)c1cnc(N[C@@H]2CCCC[C@@H]2N)nc1Nc1cccc(-n2nccn2)c1
Experiment: log2 fold change, soluble protein after heating vs DMSO (PISA); higher = thermal stabilisation; K562 cells, 10 uM, 30 min; active = over 0.2 and 3.5 SD of the protein, either way, in both replicates (recomputed)
How it was run: (§1)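 K562 cells at 2×10^6 cells/mL were exposed to 10 μM compound for 30 min, then aliquots were heated for 3 min across 48°C-58°C, pooled, and extracted in PBS containing 0.5% NP-40 at 4°C. The supernatant after 21,000xg for 90 min was taken as soluble protein and measured by TMTpro 16plex LC-MS/MS with channel sums equalised. Thermal stability is reported relative to control samples, with values from duplicates. Fold changes are given on a log2 scale.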

Row | Target | log2 fold change
1 | CHURC1 isoform 2 (UniProt Q8WUH1) | inactive: -0.031
2 | CMPK1 (UniProt P30085) | inactive: -0.056
3 | CHMP6 (UniProt Q96FZ7) | inactive: 0.007
4 | COA3 (UniProt Q9Y2R0) | inactive: 0.029
5 | CLPB isoform 2 (UniProt Q9H078) | inactive: -0.115
6 | CMPK2 (UniProt Q5EBM0) | inactive: -0.076
7 | CMC1 (UniProt Q7Z7K0) | inactive: 0.104
8 | COA1 (UniProt Q9GZY4) | inactive: -0.041
9 | CINP isoform 3 (UniProt Q9BW66) | inactive: -0.011
10 | COA7 (UniProt Q96BR5) | inactive: 0.01
11 | CMC2 (UniProt Q9NRP2) | inactive: 0.017
12 | CIAO3 (UniProt Q9H6Q4) | inactive: -0.002
13 | CKMT1A (UniProt P12532) | inactive: -0.043
14 | COL18A1 (UniProt P39060) | inactive: 0.051
15 | CNPY2 (UniProt Q9Y2B0) | inactive: 0.008
16 | CLIC2 (UniProt O15247) | inactive: 0

Row | Target | log2 fold change
17 | CLPTM1 (UniProt O96005) | inactive: -0.021
18 | CLGN (UniProt O14967) | inactive: -0.196
19 | CLCN7 (UniProt P51798) | inactive: -0.162
20 | CNOT3 (UniProt O75175) | inactive: -0.031
21 | CLDND1 (UniProt Q9NY35) | inactive: 0.088
22 | CNOT9 isoform 2 (UniProt Q92600) | inactive: 0.061
23 | CIAPIN1 (UniProt Q6FI81) | inactive: -0.042
24 | CKAP5 (UniProt Q14008) | inactive: -0.032
25 | CMBL (UniProt Q96DG6) | inactive: -0.03
26 | CLIP4 (UniProt Q8N3C7) | inactive: -0.014
27 | CKM (UniProt P06732) | inactive: -0.008
28 | CMAS (UniProt Q8NFW8) | inactive: 0.042
29 | CIAO1 (UniProt O76071) | inactive: -0.004
30 | CLIC4 (UniProt Q9Y696) | inactive: -0.018
31 | CLCC1 (UniProt Q96S66) | inactive: -0.065
32 | CLIP1 isoform 1 (UniProt P30622) | inactive: -0.031

Compound: NC1(c2ccc(-c3nc4ccn5c(=O)[nH]nc5c4cc3-c3ccccc3)cc2)CCC1
Experiment: as above
How it was run: as §1

Row | Target | log2 fold change
33 | CHURC1 isoform 2 (UniProt Q8WUH1) | inactive: 0.015
34 | CMPK1 (UniProt P30085) | inactive: -0.102
35 | CHMP6 (UniProt Q96FZ7) | inactive: 0.029
36 | COA3 (UniProt Q9Y2R0) | inactive: 0.018
37 | CLPB isoform 2 (UniProt Q9H078) | inactive: -0.119
38 | CMPK2 (UniProt Q5EBM0) | inactive: -0.106
39 | CMC1 (UniProt Q7Z7K0) | inactive: -0.04
40 | COA1 (UniProt Q9GZY4) | inactive: -0.063
41 | CINP isoform 3 (UniProt Q9BW66) | inactive: 0.049
42 | COA7 (UniProt Q96BR5) | inactive: -0.073
43 | CMC2 (UniProt Q9NRP2) | inactive: -0.006
44 | CIAO3 (UniProt Q9H6Q4) | inactive: -0.051
45 | CKMT1A (UniProt P12532) | inactive: 0.138
46 | COL18A1 (UniProt P39060) | inactive: -0.18
47 | CNPY2 (UniProt Q9Y2B0) | inactive: -0.045
48 | CLIC2 (UniProt O15247) | inactive: -0.065

Row | Target | log2 fold change
49 | CLPTM1 (UniProt O96005) | inactive: -0.029
50 | CLGN (UniProt O14967) | inactive: 0.012
51 | CLCN7 (UniProt P51798) | active: -0.674
52 | CNOT3 (UniProt O75175) | inactive: -0.045
53 | CLDND1 (UniProt Q9NY35) | inactive: -0.02
54 | CNOT9 isoform 2 (UniProt Q92600) | inactive: -0.046
55 | CIAPIN1 (UniProt Q6FI81) | inactive: -0.113
56 | CKAP5 (UniProt Q14008) | inactive: -0.093
57 | CMBL (UniProt Q96DG6) | inactive: 0.17
58 | CLIP4 (UniProt Q8N3C7) | inactive: 0.232
59 | CKM (UniProt P06732) | inactive: -0.168
60 | CMAS (UniProt Q8NFW8) | inactive: 0.171
61 | CIAO1 (UniProt O76071) | inactive: -0.024
62 | CLIC4 (UniProt Q9Y696) | inactive: -0.02
63 | CLCC1 (UniProt Q96S66) | inactive: -0.006
64 | CLIP1 isoform 1 (UniProt P30622) | inactive: 0.011

Compound: NCC(=O)Nc1ccc(-n2nc(C(F)(F)F)cc2-c2ccc3c(ccc4ccccc43)c2)cc1
Experiment: as above
How it was run: as §1

Row | Target | log2 fold change
65 | CHURC1 isoform 2 (UniProt Q8WUH1) | inactive: -0.021
66 | CMPK1 (UniProt P30085) | inactive: 0.018
67 | CHMP6 (UniProt Q96FZ7) | inactive: -0.014
68 | COA3 (UniProt Q9Y2R0) | inactive: 0
69 | CLPB isoform 2 (UniProt Q9H078) | inactive: 0.028
70 | CMPK2 (UniProt Q5EBM0) | inactive: -0.043
71 | CMC1 (UniProt Q7Z7K0) | inactive: 0.02
72 | COA1 (UniProt Q9GZY4) | inactive: -0.086
73 | CINP isoform 3 (UniProt Q9BW66) | inactive: 0.003
74 | COA7 (UniProt Q96BR5) | inactive: 0.044
75 | CMC2 (UniProt Q9NRP2) | inactive: -0.044
76 | CIAO3 (UniProt Q9H6Q4) | inactive: -0.034
77 | CKMT1A (UniProt P12532) | inactive: -0.013
78 | COL18A1 (UniProt P39060) | inactive: -0.023
79 | CNPY2 (UniProt Q9Y2B0) | inactive: -0.013
80 | CLIC2 (UniProt O15247) | inactive: -0.051

Row | Target | log2 fold change
81 | CLPTM1 (UniProt O96005) | inactive: -0.048
82 | CLGN (UniProt O14967) | inactive: -0.075
83 | CLCN7 (UniProt P51798) | inactive: -0.048
84 | CNOT3 (UniProt O75175) | inactive: 0.057
85 | CLDND1 (UniProt Q9NY35) | inactive: -0.066
86 | CNOT9 isoform 2 (UniProt Q92600) | inactive: -0.033
87 | CIAPIN1 (UniProt Q6FI81) | inactive: -0.048
88 | CKAP5 (UniProt Q14008) | inactive: -0.035
89 | CMBL (UniProt Q96DG6) | inactive: -0.029
90 | CLIP4 (UniProt Q8N3C7) | inactive: -0.008
91 | CKM (UniProt P06732) | inactive: -0.033
92 | CMAS (UniProt Q8NFW8) | inactive: 0.019
93 | CIAO1 (UniProt O76071) | inactive: -0.032
94 | CLIC4 (UniProt Q9Y696) | inactive: -0.069
95 | CLCC1 (UniProt Q96S66) | inactive: -0.026
96 | CLIP1 isoform 1 (UniProt P30622) | inactive: 0.013
